Publication PMC10805786

The chains behind the UniProt entries cited, without tags or fusion partners. Where a name states a change or a piece, a line headed by the entry shows the natural chain unless it says otherwise.
UniProt P23368: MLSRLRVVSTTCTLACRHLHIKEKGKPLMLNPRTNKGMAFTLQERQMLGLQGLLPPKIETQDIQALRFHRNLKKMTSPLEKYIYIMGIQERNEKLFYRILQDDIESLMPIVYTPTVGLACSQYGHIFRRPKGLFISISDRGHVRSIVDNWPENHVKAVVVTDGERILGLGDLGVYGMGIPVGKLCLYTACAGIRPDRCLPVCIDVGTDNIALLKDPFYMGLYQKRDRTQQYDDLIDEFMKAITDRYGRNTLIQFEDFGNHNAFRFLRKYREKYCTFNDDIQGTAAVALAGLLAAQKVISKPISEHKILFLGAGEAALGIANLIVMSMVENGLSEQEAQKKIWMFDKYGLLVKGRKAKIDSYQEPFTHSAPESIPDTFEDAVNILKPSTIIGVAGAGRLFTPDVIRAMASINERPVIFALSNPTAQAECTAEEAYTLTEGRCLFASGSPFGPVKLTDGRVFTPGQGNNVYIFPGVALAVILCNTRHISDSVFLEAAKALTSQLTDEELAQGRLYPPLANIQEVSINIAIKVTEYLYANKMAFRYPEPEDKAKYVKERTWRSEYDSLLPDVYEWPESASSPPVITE
UniProt P11413: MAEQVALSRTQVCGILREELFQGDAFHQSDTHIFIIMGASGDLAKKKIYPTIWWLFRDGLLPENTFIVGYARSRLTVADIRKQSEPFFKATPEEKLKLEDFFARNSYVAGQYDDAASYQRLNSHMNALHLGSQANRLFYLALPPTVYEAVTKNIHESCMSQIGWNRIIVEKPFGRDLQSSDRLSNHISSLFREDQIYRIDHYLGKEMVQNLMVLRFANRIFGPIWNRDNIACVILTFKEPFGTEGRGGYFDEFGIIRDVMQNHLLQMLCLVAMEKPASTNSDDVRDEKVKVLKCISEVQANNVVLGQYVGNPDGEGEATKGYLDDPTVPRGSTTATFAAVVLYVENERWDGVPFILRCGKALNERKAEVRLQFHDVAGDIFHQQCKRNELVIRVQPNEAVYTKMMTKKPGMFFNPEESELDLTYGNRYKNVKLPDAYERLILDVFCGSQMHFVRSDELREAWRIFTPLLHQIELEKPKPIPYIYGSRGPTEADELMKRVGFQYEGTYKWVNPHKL
UniProt P06733: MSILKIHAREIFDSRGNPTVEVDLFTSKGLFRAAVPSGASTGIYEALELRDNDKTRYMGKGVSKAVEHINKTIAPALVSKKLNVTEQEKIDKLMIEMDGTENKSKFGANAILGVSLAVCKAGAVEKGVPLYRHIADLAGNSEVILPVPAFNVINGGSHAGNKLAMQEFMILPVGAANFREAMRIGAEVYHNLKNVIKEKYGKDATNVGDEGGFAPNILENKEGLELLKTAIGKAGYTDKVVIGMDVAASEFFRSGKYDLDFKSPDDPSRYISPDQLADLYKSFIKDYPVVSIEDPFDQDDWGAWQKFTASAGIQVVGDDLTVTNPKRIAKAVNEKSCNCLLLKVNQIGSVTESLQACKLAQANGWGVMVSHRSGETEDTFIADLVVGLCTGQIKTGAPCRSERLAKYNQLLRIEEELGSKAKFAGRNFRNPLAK
UniProt P04406: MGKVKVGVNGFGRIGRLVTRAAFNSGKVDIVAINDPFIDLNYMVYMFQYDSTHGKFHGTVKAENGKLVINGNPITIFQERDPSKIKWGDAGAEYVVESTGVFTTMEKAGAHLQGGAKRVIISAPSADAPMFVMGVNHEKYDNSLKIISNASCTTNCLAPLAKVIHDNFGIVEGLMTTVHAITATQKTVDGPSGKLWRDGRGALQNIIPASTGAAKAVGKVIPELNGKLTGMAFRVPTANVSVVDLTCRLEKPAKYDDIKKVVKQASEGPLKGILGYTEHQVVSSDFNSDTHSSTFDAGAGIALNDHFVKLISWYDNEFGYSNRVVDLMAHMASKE
UniProt P14618: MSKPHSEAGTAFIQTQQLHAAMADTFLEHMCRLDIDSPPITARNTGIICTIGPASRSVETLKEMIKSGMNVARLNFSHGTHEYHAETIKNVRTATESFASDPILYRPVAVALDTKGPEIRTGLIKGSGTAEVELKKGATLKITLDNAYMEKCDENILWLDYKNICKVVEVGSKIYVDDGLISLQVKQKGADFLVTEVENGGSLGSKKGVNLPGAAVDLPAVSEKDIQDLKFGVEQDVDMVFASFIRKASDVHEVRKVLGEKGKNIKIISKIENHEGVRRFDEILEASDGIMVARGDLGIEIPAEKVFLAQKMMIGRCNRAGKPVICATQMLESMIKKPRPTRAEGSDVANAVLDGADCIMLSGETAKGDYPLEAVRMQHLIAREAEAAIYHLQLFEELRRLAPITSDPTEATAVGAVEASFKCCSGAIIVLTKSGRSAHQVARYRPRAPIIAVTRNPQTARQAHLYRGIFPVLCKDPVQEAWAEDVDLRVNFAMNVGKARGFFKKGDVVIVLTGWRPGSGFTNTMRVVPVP

B1: ALDOA, endogenous in HEK293T (enzyme, UniProt P04075 1-364)
chain: MPYQYPALTPEQKKELSDIAHRIVAPGKGILAADESTGSIAKRLQSIGTENTEENRRFYRQLLLTADDRVNPCIGGVILFHETLYQKADDGRPFPQVIKSKGGVVGIKVDKGVVPLAGTNGETTTQGLDGLSERCAQYKKDGADFAKWRCVLKIGEHTPSALAIMENANVLARYASICQQNGIVPIVEPEILPDGDHDLKRCQYVTEKVLAAVYKALSDHHIYLEGTLLKPNMVTPGHACTQKFSHEEIAMATVTALRRTVPPAVTGITFLSGGQSEEEASINLNAINKCPLLKPWALTFSYGRALQASALKAWGGKKENLKAAQEEYVKRALANSLACQGKYTPSGQAGAAASESLFVSNHAY

Each molecule was assayed against ME2flS9D-3'Flag (human) (UniProt P23368) (assay: affinity purification with mass spectrometry; HEK293T cells expressing ME2flS9D-3'Flag or vector control, anti-Flag M2 affinity gel, SDS-PAGE bands, LC-MS/MS (Orbitrap Elite)).
In the case of “G6PD, endogenous in HEK293T (from UniProt P11413 1-515) (enzyme)”, the binding is reported as “binds”. “ENO1, endogenous in HEK293T (from UniProt P06733 1-434) (enzyme)” was tested, and the binding was “binds”. With “GAPDH, endogenous in HEK293T (from UniProt P04406 1-335) (enzyme)” the binding was “binds”. “PKM, endogenous in HEK293T (from UniProt P14618 1-531) (enzyme)” was tested, and the binding was “binds”. With B1 the binding was “binds”.

These are yes or no findings as the source states them, for the method shown. In cells and extracts the contact can be indirect. These calls come from enrichment with a bait or labelling near it, and not all partners need be listed.
